Results reported in paper PMC3483155.
Construct, isoform or probe ends are uncertain for at least one entry. A weaker result is weaker than the reference pair of the same experiment.

Key:
Blom7α wt (Homo sapiens) [1] = target: Blom7α wt (Homo sapiens) (UniProt Q7Z7F0); assay: competition with a labelled probe; conditions: unlabeled AK48scr (0-40 nM) versus 20 nM biotinylated AK48; EMSA: PBS pH 7.5, 1 mM MgCl2, 1 mM DTT, 5% glycerol, 20 min at room temperature, gel at 4°C; recombinant protein; protein details: His6 (C-terminal as named, pET30A); label: 3' biotin
Blom7-KH (Homo sapiens) = Blom7-KH (Homo sapiens) (UniProt Q7Z7F0); assay: EMSA; conditions: 1 mM Mg2+, 20 nM RNA, 0-50 nM protein; EMSA: PBS pH 7.5, 1 mM MgCl2, 1 mM DTT, 5% glycerol, 20 min at room temperature, gel at 4°C; recombinant protein; protein details: His6 (C-terminal as named, pET30A); label: 3' biotin
Blom7α wt (Homo sapiens) [2] = target: Blom7α wt (Homo sapiens) (UniProt Q7Z7F0); assay: EMSA; conditions: 1 mM Mg2+, 20 nM RNA, 0-50 nM protein; EMSA: PBS pH 7.5, 1 mM MgCl2, 1 mM DTT, 5% glycerol, 20 min at room temperature, gel at 4°C; recombinant protein; protein details: His6 (C-terminal as named, pET30A); label: 3' biotin

Measured: binding result

CACGCACUCACCACGCACGCAUCCGCUCAC [AK48scr]
binds more weakly: Blom7α wt (Homo sapiens) [1] | Blom7-KH (Homo sapiens) | Blom7α wt (Homo sapiens) [2]
